Out of some 52,000 sequences screened, about 210 (0.4%) were called active.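 Rule for the calls: active = gene whose silencing raises cell survival under the drug, median off-target-corrected z-score across its silencing RNAs 2 or more; inactive = the rest.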 The list shows a part of the results.
Test: Resistance to Poly (ADP-Ribose) Polymerase inhibitor: Gene Identification via Genome-wide siRNA Screen
Details: mouse BRCA2 R2336H ES cells, olaparib, CellTiter-Glo viability; stronger effect = higher value
In short: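 Mouse BRCA2 R2336H ES cells were reverse-transfected with siRNA (20 nM final), treated at 48 h with 500 nM olaparib, and read by CellTiter-Glo after 72 h. Scores: MAD-based z per siRNA, median per gene, seed off-target correction.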

Sequence | z-score
GGUAGAAAAAGUAAUUUCCTT against Tmprss2 | inactive: 1.14
CCAUACACAGUAUAAUCAATT against A830023L05 | inactive: 0.23
CCAACACAUGUGGAGAGUUTT against 5830468K18Rik | inactive: -0.313
CGCCCAAAUUGACUAUUUGTT against B230312A22Rik | inactive: -0.592
GGAAUAUUCUGGUCCAGAGTT against Cdh24 | inactive: 0.0259
CCUACUUAAGGUCUAGUUUTT against C630007B19Rik | inactive: 0.685
GGUAUCCAUGUCAUGCUCUTT against Cyp4a12 | inactive: 0.116
CGUCAAUGAAUUCGACUCUTT against Pnlip | inactive: -0.114
CCCAAUUAGAAUAAAGCUUTT against Asb11 | inactive: 0.295
GGUCAUCGAGUUGCUUUUUTT against Gga3 | inactive: -1
GGUGGAGAGCUACAAUAUUTT against Pcdhga11 | inactive: -3.26
GGUGGACUUCGAGAACAUATT against Cyp2d26 | inactive: -1.55
CCAUGGUCACCUAUGUCCUTT against Tas2r129 | inactive: -0.505
GCCCUCAACCAUAAUUCAATT against Zipro1 | inactive: 0.8
GGUGCAAUCAGGUAUUUCATT against Olfr917 | inactive: -2.79
GGUUACAAACAUUUGUGAATT against Rds | inactive: -1.46
GGUUAUGAAGAUUUCGUUGTT against Myl1 | inactive: 0.486
AUUACAUGAUGAGCUUGGUTT against Olfr804 | inactive: -0.506
GGACUUUGAAGAACUAAGUTT against Tfrc | inactive: -1.27
GGCCUAAAUUAUAUUAGGATT against Nyx | inactive: 1.49
CCCAGCAUGGAUCAAGCACTT against Kb36 | inactive: 0.103
GGCAAAGUGGAUAAGCAAUTT against Dpp6 | inactive: -0.0686
GACCCUCGGGCGGAUAAAATT against Nkx2-5 | inactive: -0.837
CCAAUUACGCCUUUGUACCTT against Tnk2 | inactive: 0.391
GGUUCAGCUUAUGGUAACUTT against D330038K10Rik | inactive: -1.74
GCUGAACAUCUGGGAUGUATT against Arl2 | inactive: -0.87

Sequence | z-score
GGACUGGGAACUUCUUGACTT against BC038881 | inactive: 2.19
GCCGAGACAUAUGCCAAGATT against Dm15 | inactive: 0.0189
GGACCUUGGAGAAAUUAGGTT against Nupr1 | inactive: 0.122
GGGUAGCUUUUUUUAUAACTT against Tnfrsf11b | inactive: -0.099
CCAAUCCGUGUAUUGGUUATT against Itgb5 | inactive: 1.05
GCAGGUCUUACCAGAUCGATT against 2010013E08Rik | inactive: -0.84
CCUGGAACAAUUUAACCAATT against Mcm6 | inactive: -1.09
GGAUAAGUCAGAGCUAUAUTT against BC038613 | inactive: -1.71
GGUCCUCGGUUACAGAAACTT against Cnr2 | inactive: 0.655
GGAUAUUCAAAGUUACCAATT against Cacna1b | inactive: 2.34
GGUCACCCUCAAGUACCCUTT against Thop1 | inactive: -0.426
GGAGAGCUGGUUCAUCACUTT against Trp53inp1 | inactive: 1.58
CGAGCUAAACUCAGGCUCUTT against Mxd4 | inactive: 1.37
GGAAUAGACAUCAAUGUUATT against Ankrd32 | inactive: 0.561
GGUUGAUUUCACAGAAGAATT against Iqgap1 | inactive: -0.664
CCAGUCGUAGUGAAUUUGUTT against Gm996 | inactive: -0.426
GGAGCACUGAUUUGAUAGATT against Lynx1 | inactive: 0.68
GGAACUUUAUAGUUAGUGCTT against Sfrs6 | inactive: 0.472
GGACCUGGAGUAUAUGCUGTT against 4933406M09Rik | inactive: 0.794
GGGCAAGGAAUUUAUUACATT against Map2k4 | inactive: -0.226
CCCUUGCUAGUCCUUCUAUTT against 6720463M24Rik | inactive: 0.458
GGAAGACAACAAGGAAGAGTT against Spt1 | inactive: -0.431
CACUGACCAAAUUAUCACCTT against Olfr763 | inactive: 0.99
GGUUAGUCUCUCCAGAAAGTT against Polg2 | inactive: -0.219
GGUUGUUAAUCAGUGUUUATT against 1110019N10Rik | inactive: -0.304
GCAUAUCUGUUCAUGAUGATT against Cmya5 | inactive: 0.579

Sequence | z-score
GCAGCUCAGUUAUUGUCAGTT against Cyp20a1 | inactive: 0.929
GGUUUUUGUGGAAAUGUGGTT against 4122402O22Rik | inactive: 0.151
CGCAGUAACCUGUUUGAGCTT against X83328 | inactive: 0.259
GGUAGCUACUCAUAUAUAGTT against E330037G11Rik | inactive: -2.42
GGCCCUUCCCAGAUAUGCATT against AU018829 | inactive: 3.5
GCUACGCUAUCCAAAUUCUTT against AF529169 | inactive: -0.118
CCAUACAUAAAAAGCCGCCTT against Il1rl1 | inactive: 0.894
GGCAGCUGUUAUGCUUUUCTT against 1110055L24Rik | inactive: 0.345
GGACAAUGGCCAUGUUUUATT against 2310030G06Rik | inactive: 0.221
GGUUGCAUUGUAGGGUUGGTT against Olfr129 | inactive: 0.84
GGUUUUACAUUCUGUGUUUTT against 1700030K01Rik | inactive: -0.487
GGUGACUCUACAAGCCUUUTT against 1110011K10Rik | inactive: 0.111
GCCGACUCUGGAAAUUAUCTT against C130076O07Rik | inactive: 0.436
GCAAAUAUUGGCCACUCUCTT against Prp19 | inactive: -0.802
GGAUCAAGACAAAAAACUUTT against Arhgap17 | inactive: -0.443
GCUAAGUCCGACUAAGCAUTT against Hmgn1 | inactive: -0.361
GCAUGUCAGACUGGUGCAATT against Smfn | inactive: 1.34
CCACAUCUCGCAAACACGATT against LOC545554 | inactive: 0.011
CGCAUUAUGCUUGAAAUGUTT against Nefh | inactive: 1.21
GGGCAACAUUGAAACAAAUTT against Idh3g | inactive: 2.2
GCCAAAGUGCAGAAUUGGUTT against Rhox1 | inactive: -0.0467
GGCGGUAACCACUUUCACGTT against Nmyc1 | inactive: -0.0158
GGAGGAGAGAACAAAAUGUTT against Itgb1bp2 | inactive: 1.06
CCUUGUUAGAGCAUUACAATT against BC021395 | inactive: -0.81
CGGCUUAGUAAAUGUGACUTT against Gm443 | inactive: 0.965
CCGGUAUUCAAUAGCUCUCTT against Cybb | inactive: 0.0779

Sequence | z-score
GGAUACUCGGGAUCUAGUATT against Anxa11 | inactive: -1.71
CGGGAAUCCUAUCUAUCAATT against Smox | inactive: 2.03
GCUACGUUAAGUGAAGAUATT against Acad9 | inactive: -0.331
GCGACACCCUGAUCAUGAATT against Ascl3 | inactive: -0.0816
GGUGUUUGAUCUUUUAAAGTT against BC025462 | inactive: -0.576
GGUUAUUAUGUGUUUGACUTT against Sca7 | inactive: -0.168
GGGACCACAAGUUUAGAACTT against 2410017P07Rik | inactive: 0.422
GGAGCUAGCUGAGUUCAUGTT against Arhgap4 | inactive: -1.13
GCCGAACUAUUGGCUCAAGTT against Gucy2e | inactive: -2.28
GGCCAUCCAGUGCCUACAATT against BC022641 | inactive: -0.939
GGUUGUCUGUCUUUUCCGGTT against Mta2 | inactive: 1.64
CGACCUUUGAGACUGAAGATT against 8-Sep | inactive: -0.0158
GGUUCAAAUACAUUGCCAUTT against Rabif | inactive: 0.135
GCACUGAGCUGUGAAAACATT against Zfp98 | inactive: -2.06
GGACUCCUAAUGAAUAAUCTT against BC052883 | inactive: 0.247
GCAACUUGGCUACAAUUACTT against Dct | inactive: 0.693
GGUGAUCAUCAGUGAUAAGTT against 1700016F23Rik | inactive: -0.251
GGAAAAGAUGGCUGUUGUCTT against Banf1 | inactive: -1.07
GGACCAGCUCAUCACCAAGTT against 5133400G04Rik | inactive: -1.7
CCAAGGUAGAGGUGGCGAATT against Prkcabp | inactive: 0.682
CCGCUGUUUUCAACUGUGCTT against Asb10 | inactive: 1.23
GGGUCUUAAUGGGAUGGCUTT against 6030446N20Rik | inactive: -0.0309
GGGACAGCAACAUUGUCAATT against Inhbc | inactive: 0.779
AAAACCACUCUGUUAUCACTT against Olfr774 | inactive: 0.723
GGGCUCCGAUGAAGAGAAUTT against Ctrb1 | inactive: -1.71
GGAAAAUUAGUAACCUCCCTT against 1110013L07Rik | inactive: 0.281

Reprinted from the results shown (3 entries):
Sequence | z-score
GGUUUUUGUGGAAAUGUGGTT against 4122402O22Rik | inactive: 0.151
CGCAGUAACCUGUUUGAGCTT against X83328 | inactive: 0.259
GGUAGCUACUCAUAUAUAGTT against E330037G11Rik | inactive: -2.42

Source: PubChem BioAssay AID1347423 (Functional Genomics Laboratory (NCATS/FGL), 2020)
